# Measurements reported in PubChem BioAssay AID1259405 (NCATS, 2018)
# Test: 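Silenced genes that increase secreted GFP made by CHO cells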 (primary screen)
# Cells: Chinese hamster CHO-K1 ovary cells with stable secreted eGFP expression
# Reagents: single siRNA against mouse genes, 0.8 pmol siRNA per well (2 µl of 400 nM stock)
# Timing: 3 days
# Read-out: 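Per-well intracellular GFP measured by laser scanning cytometry, plus viability from ATP luminescence, each relative to plate median of non-targeting control wells, in %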
# Scale: GFP, % of control: higher = more GFP per well, higher productivity; viability (ATP), % of control: higher = more viable cells (more ATP)
# Rule for the call: 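Called active when intracellular GFP, relative to negative control, is at or above 120%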
# In all, the deposit lists about 50,000 reagents; this is a random part of them. Over the whole deposit, about 4,000 (8%) were called active. 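Mouse siRNA library applied to hamster cells; one well for each siRNA.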 A number with no mark means an inactive call. Reagents against one gene are numbered here. Reagent sequences are not shown.
gene,siRNA no.,"GFP, % of control","viability (ATP), % of control"
Gm5617 (predicted gene 5617),1,79.9,43.5
Gm5617 (predicted gene 5617),2,142 (active),96.9
Gm5617 (predicted gene 5617),3,120,64.1
Lrp11 (low density lipoprotein receptor-related protein 11),1,75.5,86.9
Lrp11 (low density lipoprotein receptor-related protein 11),2,76.3,75.1
Lrp11 (low density lipoprotein receptor-related protein 11),3,74,66.6
Glrx5 (glutaredoxin 5),1,71,62.8
Glrx5 (glutaredoxin 5),2,156 (active),45.9
Glrx5 (glutaredoxin 5),3,94.2,92.3
Ahrr (aryl-hydrocarbon receptor repressor),1,45.4,56.8
Ahrr (aryl-hydrocarbon receptor repressor),2,84,69.8
Capza3 (capping actin protein of muscle Z-line subunit alpha 3),1,59.5,60.6
Capza3 (capping actin protein of muscle Z-line subunit alpha 3),2,68.9,67.4
Capza3 (capping actin protein of muscle Z-line subunit alpha 3),3,74,80.4
"Smpdl3a (sphingomyelin phosphodiesterase, acid-like 3A)",1,77.5,87.3
"Smpdl3a (sphingomyelin phosphodiesterase, acid-like 3A)",2,57.2,67.8
"Smpdl3a (sphingomyelin phosphodiesterase, acid-like 3A)",3,126 (active),52.9
"Zdhhc9 (zinc finger, DHHC domain containing 9)",1,27.8,20.7
"Zdhhc9 (zinc finger, DHHC domain containing 9)",2,172 (active),93.7
"Zdhhc9 (zinc finger, DHHC domain containing 9)",3,87.3,106
Phf19 (PHD finger protein 19),1,53.2,73.6
Phf19 (PHD finger protein 19),2,53.8,67.6
Phf19 (PHD finger protein 19),3,83.6,69.7
Nenf (neuron derived neurotrophic factor),1,17.2,53.4
Nenf (neuron derived neurotrophic factor),2,106,60.4
Nenf (neuron derived neurotrophic factor),3,60.6,47.1
Or2j3 (olfactory receptor family 2 subfamily J member 3),1,88,75.9
Or2j3 (olfactory receptor family 2 subfamily J member 3),2,45.5,62.2
Or2j3 (olfactory receptor family 2 subfamily J member 3),3,44.2,65.8
Sh3tc1 (SH3 domain and tetratricopeptide repeats 1),1,39.9,60.3
Sh3tc1 (SH3 domain and tetratricopeptide repeats 1),2,53.2,37.2
Sh3tc1 (SH3 domain and tetratricopeptide repeats 1),3,71.7,80.6
"Cacna1d (calcium channel, voltage-dependent, L type, alpha 1D subunit)",1,71.3,94.9
"Cacna1d (calcium channel, voltage-dependent, L type, alpha 1D subunit)",2,101,77.4
"Cacna1d (calcium channel, voltage-dependent, L type, alpha 1D subunit)",3,76.3,50.4
Smarce1 (SWI/SNF related BAF chromatin remodeling complex subunit E1),1,60.4,87.7
Smarce1 (SWI/SNF related BAF chromatin remodeling complex subunit E1),2,60.3,90.4
"Spon1 (spondin 1, (f-spondin) extracellular matrix protein)",1,77.2,97.7
"Spon1 (spondin 1, (f-spondin) extracellular matrix protein)",2,76.8,72.8
"Parp2 (poly (ADP-ribose) polymerase family, member 2)",1,78,59.4
"Parp2 (poly (ADP-ribose) polymerase family, member 2)",2,89.5,62.8
"Parp2 (poly (ADP-ribose) polymerase family, member 2)",3,82.9,85.2
Wls (wntless WNT ligand secretion mediator),1,57.7,67.2
Wls (wntless WNT ligand secretion mediator),2,99.5,93.1
Wls (wntless WNT ligand secretion mediator),3,115,116
Rnf103 (ring finger protein 103),1,70.3,76.7
Rnf103 (ring finger protein 103),2,73.6,66.3
Rnf103 (ring finger protein 103),3,82,87.6
Or52ac1 (olfactory receptor family 52 subfamily AC member 1),1,103,36.2
Or52ac1 (olfactory receptor family 52 subfamily AC member 1),2,44.4,57
Or52ac1 (olfactory receptor family 52 subfamily AC member 1),3,34.6,49.5

Individual results from the entries so far:
Under “viability (ATP), % of control”, Nenf (neuron derived neurotrophic factor) #1 has 53.4
Under “viability (ATP), % of control”, Gm5617 (predicted gene 5617) #1 shows 43.5
Under “GFP, % of control”, Or52ac1 (olfactory receptor family 52 subfamily AC member 1) #1 reads 103
For “GFP, % of control”, Cacna1d (calcium channel, voltage-dependent, L type, alpha 1D subunit) #2 has 101
Entry of Or2j3 (olfactory receptor family 2 subfamily J member 3) #3 under “GFP, % of control”: 44.2
Under “viability (ATP), % of control”, Smpdl3a (sphingomyelin phosphodiesterase, acid-like 3A) #3 has 52.9 (active)

Additional reagents:
gene,siRNA no.,"GFP, % of control","viability (ATP), % of control"
D930030D11Rik (RIKEN cDNA D930030D11 gene),1,67.4,71.2
D930030D11Rik (RIKEN cDNA D930030D11 gene),2,13.4,28.5
D930030D11Rik (RIKEN cDNA D930030D11 gene),3,132 (active),60.3
Or13a17 (olfactory receptor family 13 subfamily A member 17),1,86.9,80.5
Or13a17 (olfactory receptor family 13 subfamily A member 17),2,88.5,77.2
Or13a17 (olfactory receptor family 13 subfamily A member 17),3,106,101
Cks2 (CDC28 protein kinase regulatory subunit 2),1,101,90.1
Cks2 (CDC28 protein kinase regulatory subunit 2),2,131 (active),76.8
Cks2 (CDC28 protein kinase regulatory subunit 2),3,102,110
Ndufaf4 (NADH:ubiquinone oxidoreductase complex assembly factor 4),1,89.4,88.6
Ndufaf4 (NADH:ubiquinone oxidoreductase complex assembly factor 4),2,102,108
Ndufaf4 (NADH:ubiquinone oxidoreductase complex assembly factor 4),3,32.9,11.5
"Defa20 (defensin, alpha, 20)",1,56,61.2
"Defa20 (defensin, alpha, 20)",2,64.8,107
"Defa20 (defensin, alpha, 20)",3,50.3,86.4
Dbil5 (diazepam binding inhibitor-like 5),1,105,92.3
Dbil5 (diazepam binding inhibitor-like 5),2,83.8,72.6
Dbil5 (diazepam binding inhibitor-like 5),3,75.6,51.6
Erbb2 (erb-b2 receptor tyrosine kinase 2),1,43.4,50.2
Erbb2 (erb-b2 receptor tyrosine kinase 2),2,39.2,53.9
Erbb2 (erb-b2 receptor tyrosine kinase 2),3,72.3,76.6
"Prl8a2 (prolactin family 8, subfamily a, member 2)",1,76.9,57.4
"Prl8a2 (prolactin family 8, subfamily a, member 2)",2,60.2,49.5
"Prl8a2 (prolactin family 8, subfamily a, member 2)",3,21.8,42.7
Or8b8 (olfactory receptor family 8 subfamily B member 8),1,30.4,46.9
Or8b8 (olfactory receptor family 8 subfamily B member 8),2,108,97.3
Or8b8 (olfactory receptor family 8 subfamily B member 8),3,80.4,84.5
Kcnh1,1,75.2,80.7
Kcnh1,2,24.6,41.2
Kcnh1,3,79.1,36.3
Teddm1a (transmembrane epididymal protein 1A),1,57.4,77.3
Teddm1a (transmembrane epididymal protein 1A),2,93.3,58.3
Teddm1a (transmembrane epididymal protein 1A),3,147 (active),84.1
